PubChem BioAssay AID1671195, Yale University – 2021
This is one part, drawn at random, of about 22,000 reagents tested. Over the whole deposit, about 1,510 (6.9%) are marked active. 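Active includes knockdowns raising or lowering LDL uptake; positive z-scores mean more uptake, negative mean less.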 Entries without a mark were called inactive. The numbers tell different reagents against one gene apart.

- Purpose: 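Genes whose knockdown alters LDL uptake in liver cancer cells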 (primary screen)
- System: human Huh7 hepatoma cells
- Reagents: siRNA pool against human genes, 18 nM
- Duration: about 2 to 2.5 days of knockdown, then 8 h LDL uptake
- Challenge: DiI-labelled LDL at 30 µg/ml for 8 h, in lipoprotein-deficient serum medium
- Read-out: 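Fluorescent LDL signal imaged in cells, scaled to the plate median, robust z-score for each replicate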
- Reading the numbers: robust z-score: higher = more LDL uptake after knockdown
- Active means: 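a gene counts as active if at least two replicate z-scores exceed ±2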

no.	gene knocked down	reagent no.	robust z-score, replicate 1	robust z-score, replicate 2	robust z-score, replicate 3
1	TMEM116 (transmembrane protein 116)	1	3.17 (active)	1.68	2.89
2	C5orf46 (chromosome 5 open reading frame 46)	1	-0.567	-0.175	-0.0788
3	EPHB6 (EPH receptor B6)	1	-0.663	-0.82	-1
4	EIF5A (eukaryotic translation initiation factor 5A)	1	-0.456	-0.352	0.224
5	LOC439960 (retired record)	1	-0.347	-0.509	-0.918
6	ZNF592 (zinc finger protein 592)	1	-0.309	-0.457	-0.458
7	IL17RA (interleukin 17 receptor A)	1	0.349	1.19	0.818
8	ATP1B2 (ATPase Na+/K+ transporting subunit beta 2)	1	-0.0346	-0.0982	-0.674
9	ZNF510 (zinc finger protein 510)	1	-0.647	-0.799	-0.76
10	OPTN (optineurin)	1	-0.293	-1.06	-1.07
11	RP2 (RP2 activator of ARL3 GTPase)	1	-1.35	-0.863	-0.651
12	PIF1 (PIF1 5'-to-3' DNA helicase)	1	-0.949	-1.51	-1.55
13	CHD3 (chromodomain helicase DNA binding protein 3)	1	-0.801	-0.785	-0.506
14	RLF (RLF zinc finger)	1	0.0305	-0.747	0.729
15	LOC392546 (retired record)	1	-0.489	-0.898	-0.883
16	UTP23 (UTP23 small subunit processome component)	1	1.08	1.79	1.1
17	HARS1 (histidyl-tRNA synthetase 1)	1	0.567	0.254	0.867
18	AADACL2 (arylacetamide deacetylase like 2)	1	-0.555	-0.366	-0.457
19	SLC25A17	1	0.904	0.368	0.902
20	XYLT2 (xylosyltransferase 2)	1	-2 (active)	-2.16	-1.96
21	ZSWIM8 (zinc finger SWIM-type containing 8)	1	1.66	1.21	1.08
22	ZSWIM8 (zinc finger SWIM-type containing 8)	2	0.647	-1.89	0.341
23	PCYOX1L (prenylcysteine oxidase 1 like)	1	-0.459	-0.971	-0.835
24	LOC440578 (retired record)	1	-0.226	-0.298	-0.338
25	STN1 (STN1 subunit of CST complex)	1	-0.371	-0.472	-0.208
26	LBX2 (ladybird homeobox 2)	1	-0.593	-0.691	-0.258
27	CHST6 (carbohydrate sulfotransferase 6)	1	-0.626	-0.824	-1.12
28	DDO (D-aspartate oxidase)	1	0.626	0.739	0.786
29	OR5M8 (olfactory receptor family 5 subfamily M member 8)	1	1.55	1.96	2.08
30	GOLGA8IP (golgin A8 family member I, pseudogene)	1	0.619	-0.0535	-0.573
31	DYDC1 (DPY30 domain containing 1)	1	-0.0649	-0.245	0.0163
32	GLI1 (GLI family zinc finger 1)	1	-1.83	-1.42	-1.56
33	RAD54B (RAD54 homolog B)	1	-0.281	-0.916	0.262
34	RAD54B (RAD54 homolog B)	2	-0.037	-0.205	-0.761
35	ANKRD20A11P (ankyrin repeat domain 20 family member A11, pseudogene)	1	-0.761	-0.734	-0.839
36	FRMD1 (FERM domain containing 1)	1	-0.686	-1.56	-0.955
37	DCUN1D2 (defective in cullin neddylation 1 domain containing 2)	1	0.894	-1.07	-1.1
38	PCED1B (PC-esterase domain containing 1B)	1	0.399	0.747	0.843
39	LOC441909 (retired record)	1	0.0175	0.569	0.321
40	ADCY9 (adenylate cyclase 9)	1	-0.419	0.103	-0.369
41	SPRY4 (sprouty RTK signaling antagonist 4)	1	0.856	0.985	-0.21
42	AMZ2P1 (AMZ2 pseudogene 1)	1	0.0545	0.0823	-0.909
43	LOC440421 (retired record)	1	-2.83 (active)	-2.71	-2.93
44	LGI2 (leucine rich repeat LGI family member 2)	1	-0.0642	-1.66	0.38
45	EIF3J (eukaryotic translation initiation factor 3 subunit J)	1	7.46 (active)	2.02	4.04
46	PKIA (cAMP-dependent protein kinase inhibitor alpha)	1	-0.637	-1.7	-1.39
47	ZNF280D (zinc finger protein 280D)	1	0.691	1.95	1.2
48	MEAK7 (MTOR associated protein MEAK7)	1	-1.48 (active)	-2	-2.39
49	MGMT (O-6-methylguanine-DNA methyltransferase)	1	1.12	0.591	1.06
50	PHLDB2 (pleckstrin homology like domain family B member 2)	1	5.19 (active)	3.94	4.23
51	SPATA6L (spermatogenesis associated 6 like)	1	1.02	1.31	2.63
52	CD63 (CD63 molecule)	1	-1.2	-0.81	-1.28
53	OPA3 (outer mitochondrial membrane lipid metabolism regulator OPA3)	1	1.29	0.612	1.29
54	WDR49 (WD repeat domain 49)	1	-1.46	-1.24	-1.56
55	UBQLN4 (ubiquilin 4)	1	0.813	0.852	0.972
56	SIPA1 (signal-induced proliferation-associated 1)	1	1.28	-0.638	-0.959
57	WDR33 (WD repeat domain 33)	1	0.0728	-1.1	-0.75
58	MAPK11 (mitogen-activated protein kinase 11)	1	-0.0914	0.309	0.208
59	LOC400714 (retired record)	1	-0.315	-0.73	0.02
60	CFAP144 (cilia and flagella associated protein 144)	1	1.37	1.99	1.8
61	SLC3A1	1	-1.13	-0.91	-0.193
62	CFL1P6 (cofilin 1 pseudogene 6)	1	0.696	0.0353	0.198
63	CCDC39 (coiled-coil domain 39 molecular ruler complex subunit)	1	0.0179	0.204	0.295
64	SHANK2 (SH3 and multiple ankyrin repeat domains 2)	1	2.33 (active)	3.91	2.15
65	AQP4-AS1 (AQP4 antisense RNA 1)	1	-0.542	-0.53	-0.943
66	LINC00923 (long independently transcribed non-coding RNA 923)	1	-1.3	-0.557	-0.501
67	PKNOX2 (PBX/knotted 1 homeobox 2)	1	0.831	1.4	0.98
68	OR2D3 (olfactory receptor family 2 subfamily D member 3)	1	-0.152	-0.118	-0.412
69	CST11 (cystatin 11)	1	2.79 (active)	2.46	2.9
70	DNHD1 (dynein heavy chain domain 1)	1	-0.71	0.179	0.0674
71	DNHD1 (dynein heavy chain domain 1)	2	-0.531	-0.291	-0.563
72	DNHD1 (dynein heavy chain domain 1)	3	-1.53	-1.47	-1.38
73	PNPO (pyridoxamine 5'-phosphate oxidase)	1	-0.676	0.468	-0.614
74	OOSP2 (oocyte secreted protein 2)	1	0.213	0.14	0.2
75	JMY (junction mediating and regulatory protein, p53 cofactor)	1	-0.0509	-0.903	-0.0104
76	FZD5 (frizzled class receptor 5)	1	-0.702	-1.15	-0.38
77	PGAP4 (post-GPI attachment to proteins GalNAc transferase 4)	1	1.31	1.55	0.989
78	ING2 (inhibitor of growth family member 2)	1	1.11	0.915	1.21
79	POC1A (POC1 centriolar protein A)	1	-0.189	0.27	-0.407
80	HEXB (hexosaminidase subunit beta)	1	1.52	1.81	1.53
81	PRC1 (protein regulator of cytokinesis 1)	1	1.3	0.535	-0.286
82	SFXN2 (sideroflexin 2)	1	-0.775	-0.44	-0.39
83	GYPA (glycophorin A (MNS blood group))	1	0.341	0.659	0.945
84	SLC30A3	1	1.16	1.12	0.597
85	LY6K (lymphocyte antigen 6 family member K)	1	-1.99	-0.0703	-1.28
86	ZNF736P2Y (zinc finger protein 736 pseudogene 2, Y-linked)	1	-0.212	0.0751	-0.058
87	IPO5 (importin 5)	1	3.43 (active)	2.2	2.31

No new results follow: an excerpt of the list.
no.	gene knocked down	reagent no.	robust z-score, replicate 1	robust z-score, replicate 2	robust z-score, replicate 3
49	MGMT (O-6-methylguanine-DNA methyltransferase)	1	1.12	0.591	1.06
50	PHLDB2 (pleckstrin homology like domain family B member 2)	1	5.19 (active)	3.94	4.23
51	SPATA6L (spermatogenesis associated 6 like)	1	1.02	1.31	2.63
52	CD63 (CD63 molecule)	1	-1.2	-0.81	-1.28
53	OPA3 (outer mitochondrial membrane lipid metabolism regulator OPA3)	1	1.29	0.612	1.29
54	WDR49 (WD repeat domain 49)	1	-1.46	-1.24	-1.56
